# Experimental data from PubChem BioAssay AID2685 (National Center for Advancing Translational Sciences (NCATS), 2010).
# The other results are listed elsewhere or left out. The main result of the screen is listed elsewhere. These columns were measured beside it and carry no call. Most of these compounds were active or inconclusive in the main read-out, so they are no random draw. Potencies come from curve fits of mixed quality, noted in brackets.
# Test: qHTS Assay for Lipid Storage Modulators in Drosophila S3 Cells;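 on cell number change: cells counted by Cell Tracker Red CMTPX staining in the red channel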
# Conditions: BODIPY lipid droplet fluorescence, 18-24 h; for cell number change: measured here: cell count max response, cells fed with added oleic acid
# Outline: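 Drosophila S3 cells got compounds at several concentrations plus oleic acid (400 uM solution). Laser-scanning cytometry with 488 nm excitation read lipid droplets at 500-530 nm and cells at 575-640 nm. Percent activity was relative to 20 uM Triacsin C.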
# [1] = measured here: lipid fluorescence (Fed channel) AC50, cells fed with added oleic acid
# [2] = measured here: cell number channel AC50, cells fed with added oleic acid
smiles,measurement,setting,value
O=C(Cn1ncc2c(=O)oc3ccccc3c21)NCCC1=CCCCC1,cell number change,,-0.838%
same,AC50,[1],"0.0058 µM [falling, full curve, poor fit]"
Cc1c(C(=O)NC2CCCCC2C)oc2ccccc12 (configuration not stated),cell number change,,-1.08%
same,AC50,[1],"29.1 µM [falling, single point]"
O=C(Cc1ccc(Cl)cc1Cl)Nc1ccncc1,cell number change,,-33%
same,AC50,[1],"2.82 µM [falling, partial curve]"
CC(=O)c1cc2c(cc1N/C(=N/S(=O)(=O)c1ccc(C)cc1)c1ccc(Cl)cc1)OCO2,AC50,[2],"1.84 µM [rising, partial curve]"
same,AC50,[1],"1.84 µM [rising, partial curve]"
C(=C\n1nnc2ccccc21)/c1ccccn1,cell number change,,-31.6%
same,AC50,[2],"0.58 µM [falling, full curve]"
same,AC50,[1],"6.51 µM [falling, single point]"
Cc1cnc(-c2nnc(N(C)C(=O)c3cccnc3)s2)cn1,cell number change,,-3.26%
COc1ccc(C(=O)Nc2ccccc2N2CCCC2)cc1S(=O)(=O)N1CCOCC1,AC50,[2],"3.66 µM [rising, partial curve, poor fit]"
C[C@H](NC(=O)c1ccccc1)C(=O)OCC(=O)c1c[nH]c2ccccc12,cell number change,,35.4%
same,AC50,[2],"7.31 µM [rising, single point]"
CC(C)(C)NC(=O)CN(c1cccc([N+](=O)[O-])c1)S(=O)(=O)c1ccccc1,cell number change,,3.82%
same,AC50,[1],"0.92 µM [falling, single point]"
Nc1cc(=O)[nH]n1C1CCCC1,cell number change,,-97.2%
same,AC50,[2],"23.1 µM [falling, single point]"
CCOc1ccc(OCC)c(NC(=O)CSc2nc3c(c(=O)n(C)c(=O)n3C)n2CC)c1,cell number change,,5.67%
same,AC50,[2],"0.206 µM [rising, full curve, poor fit]"
same,AC50,[1],"0.411 µM [rising, full curve]"
CCOC(=O)c1sc(N)c(C#N)c1CSc1nnc(C2CCCCC2)n1N,cell number change,,-28.9%
same,AC50,[1],"0.103 µM [falling, full curve, poor fit]"
CCCS(=O)(=O)c1ccc(COC(=O)c2ccc(NC(C)=O)cc2)cc1,cell number change,,19.5%
same,AC50,[1],"2.59 µM [rising, partial curve]"
O=C(Nc1ccccc1N1CCOCC1)c1cc2c(s1)CCCCC2,cell number change,,28.1%
O=C(CSCc1cccc(CSCC(=O)Nc2ccccc2)n1)Nc1ccccc1,cell number change,,2.56%
same,AC50,[1],"13 µM [rising, single point]"
CCc1ccc(C(=O)N/N=C/c2ccncc2)s1,cell number change,,32.3%
same,AC50,[1],"6.51 µM [rising, single point]"
CCN1CCN(c2ccc(NC(=O)c3cccc(N4CCCC4=O)c3)cc2)CC1,cell number change,,-2.63%
COc1cc(NC(=O)C2CC(=O)N(Cc3ccco3)C2)c(OC)cc1Cl (configuration not stated),cell number change,,-50.7%
same,AC50,[2],"25.9 µM [falling, partial curve, poor fit]"
same,AC50,[1],"25.9 µM [falling, partial curve, poor fit]"
O=C1OCc2cc(NC(=O)C34CC5CC(CC(C5)C3)C4)ccc21,cell number change,,-69.3%
same,AC50,[2],"16.4 µM [falling, partial curve]"
same,AC50,[1],"20.6 µM [falling, partial curve]"
O=C(N/N=C/c1cc(O)ccc1Br)c1cccnc1,cell number change,,-2.46%
same,AC50,[1],"6.51 µM [rising, partial curve, poor fit]"
O=C(CCCC(=O)N(CC(=O)NC1CCCCC1)c1ccccc1F)Nc1ccccn1,cell number change,,-4.05%
same,AC50,[1],"4.11 µM [falling, full curve]"
O=C1CC(c2cc(-c3ccccc3)no2)C1,cell number change,,0.599%
same,AC50,[1],"29.1 µM [rising, single point]"
O=C(NCCc1ccccc1)c1ccc2nc(-c3ccco3)c(-c3ccco3)nc2c1,cell number change,,-121%
same,AC50,[2],"29.1 µM [falling, single point]"
same,AC50,[1],"0.291 µM [rising, partial curve, poor fit]"
COc1ccc(C)cc1NC(=O)N1CCC(CO)(CC2CCCCO2)CC1 (configuration not stated),cell number change,,29.2%
same,AC50,[2],"0.00651 µM [rising, full curve, poor fit]"
O=C(Nc1ccc(Br)c(Cl)c1)C1CC1,cell number change,,24%
same,AC50,[1],"2.31 µM [falling, partial curve]"
Cc1cccc(N(CC(=O)NC(C)(C)C)C(=O)CCC(=O)Nc2nccs2)c1,cell number change,,0.787%
CC(NC(=O)OCc1ccccc1)C(=O)OCN1C(=O)c2ccccc2C1=O (configuration not stated),cell number change,,0.195%
same,AC50,[1],"0.00517 µM [falling, full curve, poor fit]"
Cn1ccnc1SCC(=O)Nc1ccc2c(c1)OCCO2,cell number change,,10.3%
same,AC50,[1],"5.8 µM [falling, full curve]"
N=C1C(c2nc3ccccc3s2)=C(O)CN1NC(=O)c1ccccc1[N+](=O)[O-],cell number change,,-35.3%
same,AC50,[2],"11.2 µM [falling, partial curve]"
CCCOC(=O)C1C2C=C[C@]3(CN(CCc4ccccc4)C(=O)[C@H]13)O2 (some centres not stated),cell number change,,8.9%
Cc1nn(Cc2ccc([N+](=O)[O-])cc2)c(=O)n1-c1c(F)cccc1F,cell number change,,71%
same,AC50,[2],"0.411 µM [rising, partial curve]"
CN(C)CCC(=O)c1ccc(Cl)cc1,cell number change,,-8.95%
same,AC50,[1],"5.8 µM [falling, partial curve, poor fit]"
COc1ccc(NC(=O)CN(C)S(=O)(=O)c2cnc[nH]2)cc1,cell number change,,-2.47%
same,AC50,[1],"29.1 µM [rising, single point]"
COc1cccc(CN2CCN(S(=O)(=O)c3ccc(NC(C)=O)cc3)CC2)c1OC,cell number change,,-18%
same,AC50,[1],"0.58 µM [falling, full curve]"
O=C(Nc1ccccc1N1CCOCC1)c1cccc(Oc2ccccc2)c1,cell number change,,-14.5%
same,AC50,[1],"0.447 µM [falling, single point]"
Cc1csc(/N=C/N(C)C)c1C#N,cell number change,,-47.4%
same,AC50,[2],"18.4 µM [falling, single point]"
same,AC50,[1],"29.1 µM [falling, single point]"
O=C(CSc1nnc(-c2ccccc2)n1Cc1ccccc1)NNC(=O)c1ccccc1O,cell number change,,22.6%
same,AC50,[2],"0.731 µM [rising, full curve, poor fit]"
same,AC50,[1],"23.1 µM [rising, partial curve]"
Cc1ccc(NS(=O)(=O)c2cc(NC(=O)c3ccc4c(c3)NC(=O)CS4)ccc2Cl)c(C)c1,cell number change,,92.9%
same,AC50,[2],"29.1 µM [rising, single point]"

# Fetched one by one from above (four):
smiles,measurement,setting,value
C[C@H](NC(=O)c1ccccc1)C(=O)OCC(=O)c1c[nH]c2ccccc12,cell number change,,35.4%
C(=C\n1nnc2ccccc21)/c1ccccn1,AC50,[2],"0.58 µM [falling, full curve]"
O=C(CSCc1cccc(CSCC(=O)Nc2ccccc2)n1)Nc1ccccc1,AC50,[1],"13 µM [rising, single point]"
O=C(CCCC(=O)N(CC(=O)NC1CCCCC1)c1ccccc1F)Nc1ccccn1,cell number change,,-4.05%
